# Laboratory results: the supplement of paper PMC4604168 (melanoma cell lines)
# Some of the results follow. Many values rest on one well or one pass, so single values are uncertain.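 The apoptosis fraction was the count of cleaved-PARP antibody-stained nuclei relative to all DNA-stained nuclei, imaged in 1,536-well plates. Screening doses were set so most cells survived, and baseline and induced cleaved-PARP levels vary greatly across cell lines.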
# Test system: IPC-298
# Assay: cleaved PARP positive nuclei fraction relative to DMSO control; melanoma cells; higher = more apoptosis
# Settings: library dose: low library concentration; 72 h
row,SMILES,cleaved PARP positive nuclei fraction
1,"O=C(Nc1ccccc1)c1cc([N+](=O)[O-])ccc1Cl + O=S(=O)(c1ccccc1)N(CC(F)(F)F)c1ccc(C(O)(C(F)(F)F)C(F)(F)F)cc1 [T0901317] (first compound 2 µM, partner dose 1.4 µM)",44.3%
2,"CN(C)S(=O)(=O)c1ccc2c(c1)/C(=C/c1cc3c([nH]1)CCCC3)C(=O)N2 + NCC(=O)Nc1ccc(-n2nc(C(F)(F)F)cc2-c2ccc3c(ccc4ccccc43)c2)cc1 [OSU03012] (first compound 0.4 µM, partner dose 1 µM)",197%
3,"N#Cc1c(O)c2c(-c3ccc(-c4ccccc4O)cc3)csc2[nH]c1=O + O=S(=O)(c1ccccc1)N(CC(F)(F)F)c1ccc(C(O)(C(F)(F)F)C(F)(F)F)cc1 [T0901317] (first compound 2 µM, partner dose 1.4 µM)",181%
4,"NCC(=O)Nc1ccc(-n2nc(C(F)(F)F)cc2-c2ccc3c(ccc4ccccc43)c2)cc1 + COc1cc2c(Oc3ccc4[nH]c(C)cc4c3F)ncnc2cc1OCCCN1CCCC1 [cediranib] (first compound 1 µM, partner dose 0.4 µM)",175%
5,"CN(NC(=O)CC(=O)NN(C)C(=S)c1ccccc1)C(=S)c1ccccc1 + c1cc(-c2cnn3cc(-c4ccc(OCCN5CCCCC5)cc4)cnc23)ccn1 [Dorsomorphin] (first compound 0.006 µM, partner dose 0.4 µM)",64.7%
6,"COc1cc2c(Oc3ccc4[nH]c(C)cc4c3F)ncnc2cc1OCCCN1CCCC1 [cediranib] + c1cc(-c2cnn3cc(-c4ccc(OCCN5CCCCC5)cc4)cnc23)ccn1 [Dorsomorphin] (first compound 0.4 µM, partner dose 0.4 µM)",126%
7,"CN(NC(=O)CC(=O)NN(C)C(=S)c1ccccc1)C(=S)c1ccccc1 + N#Cc1c(O)c2c(-c3ccc(-c4ccccc4O)cc3)csc2[nH]c1=O [A769662] (first compound 0.006 µM, partner dose 2 µM)",85.6%
8,"O=C(O)c1ccc(-c2c[nH]c3ncc(-c4ccccc4)cc23)cc1C1CCCC1 + CN(NC(=O)CC(=O)NN(C)C(=S)c1ccccc1)C(=S)c1ccccc1 [STA4783] (first compound 0.16 µM, partner dose 0.006 µM)",94.1%
9,"CN(C)S(=O)(=O)c1ccc2c(c1)/C(=C/c1cc3c([nH]1)CCCC3)C(=O)N2 + CC(C)CCN1c2nc(Nc3cc(F)c(O)c(F)c3)ncc2N(C)C(=O)C1C [BID1870] (first compound 0.4 µM, partner dose 0.2 µM)",246%
10,"CN(NC(=O)CC(=O)NN(C)C(=S)c1ccccc1)C(=S)c1ccccc1 + COc1cc2c(Oc3ccc4[nH]c(C)cc4c3F)ncnc2cc1OCCCN1CCCC1 [cediranib] (first compound 0.006 µM, partner dose 0.4 µM)",46.3%
11,"COC(=O)c1sccc1S(=O)(=O)Nc1ccc(Nc2ccccc2)cc1OC + COc1ccc(-c2ccc3c(N4CCOCC4)nc(N4C[C@@H](C)O[C@@H](C)C4)nc3n2)cc1CO [KU0063794] (first compound 1 µM, partner dose 0.02 µM)",149%
12,"COc1ccc2c(c1)CCC1C2CCC2(C)C(NCCCCCCN3C(=O)C=CC3=O)CCC12 (stereo not drawn) + COc1cc(N2CCC(N3CCN(C)CC3)CC2)ccc1Nc1ncc(Cl)c(Nc2ccccc2S(=O)(=O)C(C)C)n1 [NVP-TAE684] (first compound 0.4 µM, partner dose 0.08 µM)",75.8%
13,"O=C(O)C(=O)Nc1sc2c(c1C(=O)O)CCNC2 + COc1cc(N2CCC(N3CCN(C)CC3)CC2)ccc1Nc1ncc(Cl)c(Nc2ccccc2S(=O)(=O)C(C)C)n1 [NVP-TAE684] (first compound 1.66667 µM, partner dose 0.08 µM)",87.5%
14,"CCCCCCCCCCCC1=C(O)C(=O)C=C(O)C1=O [Embelin] + O=c1cc(-c2cccc3c2Sc2ccccc2S3)oc(N2CCOCC2)c1 [KU55933] (first compound 1.2 µM, partner dose 1 µM)",249%
15,"COc1cc2ncnc(Nc3ccc(Oc4ccccc4)cc3)c2cc1OC + CC(C)CCN1c2nc(Nc3cc(F)c(O)c(F)c3)ncc2N(C)C(=O)C1C [BID1870] (first compound 2 µM, partner dose 0.2 µM)",26.1%
16,"N#Cc1c(O)c2c(-c3ccc(-c4ccccc4O)cc3)csc2[nH]c1=O + COC(=O)c1sccc1S(=O)(=O)Nc1ccc(Nc2ccccc2)cc1OC [GSK0660] (first compound 2 µM, partner dose 1 µM)",234%
17,"NCC(=O)Nc1ccc(-n2nc(C(F)(F)F)cc2-c2ccc3c(ccc4ccccc43)c2)cc1 + CN(NC(=O)CC(=O)NN(C)C(=S)c1ccccc1)C(=S)c1ccccc1 [STA4783] (first compound 1 µM, partner dose 0.006 µM)",112%

row,SMILES,cleaved PARP positive nuclei fraction
1,"NCC(=O)Nc1ccc(-n2nc(C(F)(F)F)cc2-c2ccc3c(ccc4ccccc43)c2)cc1 + COc1cc(N2CCC(N3CCN(C)CC3)CC2)ccc1Nc1ncc(Cl)c(Nc2ccccc2S(=O)(=O)C(C)C)n1 [NVP-TAE684] (first compound 1 µM, partner dose 0.08 µM)",248%
2,"CCc1ccc(CCOc2ccc(CC3SC(=O)NC3=O)cc2)nc1 (stereo not drawn) [pioglitazone] + O=C(O)C(=O)Nc1sc2c(c1C(=O)O)CCNC2 [TCS401] (first compound 2 µM, partner dose 1.66667 µM)",448%
3,"CCN(CC)CCCCNc1ncc2cc(-c3cc(OC)cc(OC)c3)c(NC(=O)NC(C)(C)C)nc2n1 + Oc1cc(-c2nc(-c3ccccc3)[nH]c2-c2ccncc2)ccc1Cl [L779450] (first compound 0.1 µM, partner dose 0.2 µM)",215%
4,"O=C1NC(=O)/C(=C/c2ccc(-c3ccc(F)cc3O)o2)S1 + Cc1cc([N+](=O)[O-])ccc1NS(=O)(=O)c1cc(Cl)ccc1Cl [FH535] (first compound 1 µM, partner dose 1 µM)",91.1%
5,"c1cc(-c2cnn3cc(-c4ccc(OCCN5CCCCC5)cc4)cnc23)ccn1 [Dorsomorphin] + CCCCCCCCCCCC1=C(O)C(=O)C=C(O)C1=O [Embelin] (first compound 0.4 µM, partner dose 1.2 µM)",174%
6,"COC(=O)c1sccc1S(=O)(=O)Nc1ccc(Nc2ccccc2)cc1OC + O=C(O)C(=O)Nc1sc2c(c1C(=O)O)CCNC2 [TCS401] (first compound 1 µM, partner dose 1.66667 µM)",40.6%
7,"O=C(Nc1ccccc1)c1cc([N+](=O)[O-])ccc1Cl + COc1ccc(-c2ccc3c(N4CCOCC4)nc(N4C[C@@H](C)O[C@@H](C)C4)nc3n2)cc1CO [KU0063794] (first compound 2 µM, partner dose 0.02 µM)",125%
8,"O=C(O)c1ccc(-c2c[nH]c3ncc(-c4ccccc4)cc23)cc1C1CCCC1 + COc1cc2c(Oc3ccc4[nH]c(C)cc4c3F)ncnc2cc1OCCCN1CCCC1 [cediranib] (first compound 0.16 µM, partner dose 0.4 µM)",62.1%
9,"CN(C)S(=O)(=O)c1ccc2c(c1)/C(=C/c1cc3c([nH]1)CCCC3)C(=O)N2 + CN(NC(=O)CC(=O)NN(C)C(=S)c1ccccc1)C(=S)c1ccccc1 [STA4783] (first compound 0.4 µM, partner dose 0.006 µM)",96.3%
10,"O=C(O)c1ccc(-c2c[nH]c3ncc(-c4ccccc4)cc23)cc1C1CCCC1 + NCC(=O)Nc1ccc(-n2nc(C(F)(F)F)cc2-c2ccc3c(ccc4ccccc43)c2)cc1 [OSU03012] (first compound 0.16 µM, partner dose 1 µM)",71.6%
11,"CN(C)S(=O)(=O)c1ccc2c(c1)/C(=C/c1cc3c([nH]1)CCCC3)C(=O)N2 + COc1cc2c(Oc3ccc4[nH]c(C)cc4c3F)ncnc2cc1OCCCN1CCCC1 [cediranib] (first compound 0.4 µM, partner dose 0.4 µM)",93.3%
12,"COC(=O)c1sccc1S(=O)(=O)Nc1ccc(Nc2ccccc2)cc1OC + Oc1cc(-c2nc(-c3ccccc3)[nH]c2-c2ccncc2)ccc1Cl [L779450] (first compound 1 µM, partner dose 0.2 µM)",84.1%
13,"O=C1NC(=O)/C(=C/c2ccc(-c3ccc(F)cc3O)o2)S1 + CCCCCCCCCCCC1=C(O)C(=O)C=C(O)C1=O [Embelin] (first compound 1 µM, partner dose 1.2 µM)",80%
14,"COc1cc(N2CCC(N3CCN(C)CC3)CC2)ccc1Nc1ncc(Cl)c(Nc2ccccc2S(=O)(=O)C(C)C)n1 + CC(C)CCN1c2nc(Nc3cc(F)c(O)c(F)c3)ncc2N(C)C(=O)C1C [BID1870] (first compound 0.08 µM, partner dose 0.2 µM)",153%
15,"CN(C)S(=O)(=O)c1ccc2c(c1)/C(=C/c1cc3c([nH]1)CCCC3)C(=O)N2 + O=C(O)c1ccc(-c2c[nH]c3ncc(-c4ccccc4)cc23)cc1C1CCCC1 [GSK650394] (first compound 0.4 µM, partner dose 0.16 µM)",99%
16,"COc1cc2ncnc(Nc3ccc(Oc4ccccc4)cc3)c2cc1OC + O=C1NC(=O)/C(=C/c2ccc(-c3ccc(F)cc3O)o2)S1 [AS252424] (first compound 2 µM, partner dose 1 µM)",44.5%

# 2 entries drawn at random from the list so far, as already listed:
row,SMILES,cleaved PARP positive nuclei fraction
4,"O=C1NC(=O)/C(=C/c2ccc(-c3ccc(F)cc3O)o2)S1 + Cc1cc([N+](=O)[O-])ccc1NS(=O)(=O)c1cc(Cl)ccc1Cl [FH535] (first compound 1 µM, partner dose 1 µM)",91.1%
17,"NCC(=O)Nc1ccc(-n2nc(C(F)(F)F)cc2-c2ccc3c(ccc4ccccc43)c2)cc1 + CN(NC(=O)CC(=O)NN(C)C(=S)c1ccccc1)C(=S)c1ccccc1 [STA4783] (first compound 1 µM, partner dose 0.006 µM)",112%
